Results reported in article PMC3031599.
These are yes or no findings as the source states them, for the method shown. Binding seen in cells or lysates may run through a third protein. Some results given as binding are weak or reduced against the parent protein; the word gives no strength.

By UniProt entry, the sequences of proteins in these tests, tags left out.
UniProt P29590: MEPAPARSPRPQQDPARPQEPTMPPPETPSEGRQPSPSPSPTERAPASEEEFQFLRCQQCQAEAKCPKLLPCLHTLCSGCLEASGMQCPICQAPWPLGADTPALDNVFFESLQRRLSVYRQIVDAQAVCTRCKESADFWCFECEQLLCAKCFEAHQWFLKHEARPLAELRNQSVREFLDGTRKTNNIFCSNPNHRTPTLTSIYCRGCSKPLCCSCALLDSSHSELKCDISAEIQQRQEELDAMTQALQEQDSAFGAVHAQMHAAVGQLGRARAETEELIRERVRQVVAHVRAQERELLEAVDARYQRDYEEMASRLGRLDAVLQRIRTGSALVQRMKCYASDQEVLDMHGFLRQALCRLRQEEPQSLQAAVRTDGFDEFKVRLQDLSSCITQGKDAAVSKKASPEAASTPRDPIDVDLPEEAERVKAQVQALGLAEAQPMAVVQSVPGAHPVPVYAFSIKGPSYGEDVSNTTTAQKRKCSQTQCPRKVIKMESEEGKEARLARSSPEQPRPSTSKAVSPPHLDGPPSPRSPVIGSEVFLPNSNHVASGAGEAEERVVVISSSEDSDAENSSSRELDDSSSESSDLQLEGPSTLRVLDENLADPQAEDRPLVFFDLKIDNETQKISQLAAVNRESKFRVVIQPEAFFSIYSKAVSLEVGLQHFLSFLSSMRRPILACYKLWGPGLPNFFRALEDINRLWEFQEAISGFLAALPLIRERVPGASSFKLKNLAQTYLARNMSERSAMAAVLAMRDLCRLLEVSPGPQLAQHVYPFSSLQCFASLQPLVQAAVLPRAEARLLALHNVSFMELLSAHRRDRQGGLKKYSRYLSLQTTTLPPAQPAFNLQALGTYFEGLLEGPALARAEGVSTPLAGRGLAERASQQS
UniProt Q93009: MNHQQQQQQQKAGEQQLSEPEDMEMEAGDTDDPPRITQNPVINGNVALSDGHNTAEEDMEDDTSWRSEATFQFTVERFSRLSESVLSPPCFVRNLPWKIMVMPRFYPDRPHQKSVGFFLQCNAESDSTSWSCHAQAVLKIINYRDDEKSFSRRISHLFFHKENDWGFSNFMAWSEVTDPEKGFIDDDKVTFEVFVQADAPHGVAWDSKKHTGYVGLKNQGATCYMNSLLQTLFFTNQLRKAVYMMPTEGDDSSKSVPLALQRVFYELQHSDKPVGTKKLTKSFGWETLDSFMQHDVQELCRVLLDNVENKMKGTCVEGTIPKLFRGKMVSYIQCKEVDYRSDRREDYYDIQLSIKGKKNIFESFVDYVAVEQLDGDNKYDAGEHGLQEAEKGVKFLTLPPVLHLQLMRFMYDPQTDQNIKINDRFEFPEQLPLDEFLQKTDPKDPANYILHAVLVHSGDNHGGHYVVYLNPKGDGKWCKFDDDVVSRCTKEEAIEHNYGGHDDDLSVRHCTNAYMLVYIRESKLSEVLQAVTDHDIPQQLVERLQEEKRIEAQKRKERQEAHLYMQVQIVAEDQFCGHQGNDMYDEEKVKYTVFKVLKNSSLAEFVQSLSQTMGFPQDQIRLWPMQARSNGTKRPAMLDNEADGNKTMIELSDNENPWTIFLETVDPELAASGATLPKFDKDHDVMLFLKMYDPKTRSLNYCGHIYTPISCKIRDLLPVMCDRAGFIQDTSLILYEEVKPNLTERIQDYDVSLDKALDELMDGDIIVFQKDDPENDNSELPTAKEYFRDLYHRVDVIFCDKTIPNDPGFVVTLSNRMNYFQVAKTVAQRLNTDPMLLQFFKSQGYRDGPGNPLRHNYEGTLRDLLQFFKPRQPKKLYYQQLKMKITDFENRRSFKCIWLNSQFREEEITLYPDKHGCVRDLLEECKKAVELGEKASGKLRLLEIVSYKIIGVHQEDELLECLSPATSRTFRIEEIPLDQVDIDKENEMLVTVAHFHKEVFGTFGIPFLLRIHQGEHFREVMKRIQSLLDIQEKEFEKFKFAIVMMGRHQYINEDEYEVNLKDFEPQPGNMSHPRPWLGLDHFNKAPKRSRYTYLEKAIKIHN

Assays:
[1] = target: promyelocytic leukemia (PML) tumor suppressor protein, endogenous PML isoforms (human (endogenous in CNE2)) (UniProt P29590); assay: co-IP; endogenous proteins from CNE2 nuclear extracts (nuclei by hypotonic lysis, RIPA buffer: 50 mM Tris.Cl pH 8.0, 150 mM NaCl, 1% NP40, 0.1% sodium deoxycholate); 1.5 mg lysate overnight at 4°C with 2 µg anti-PML or anti-USP7 antibody on ExactaCruz resin; blotted with the reciprocal antibody; normal rabbit IgG as negative control
[2] = target: ubiquitin specific protease USP7 (human (endogenous in CNE2)) (UniProt Q93009); assay: as above

Row | binding [1] | binding [2] | Substance
1 | binds | – | ubiquitin specific protease USP7 (from UniProt Q93009 1-1102) (enzyme)
2 | – | binds | promyelocytic leukemia (PML) tumor suppressor protein, endogenous PML isoforms (from UniProt P29590 1-882)
